The supplement of paper PMC10849652
The list shows a part of the results.

Protein sequences, listed by entry. Tags and fused reporters are not part of them. Lines headed by an entry give the natural chain unless they say otherwise; changes in a name come on top.
UniProt P48739: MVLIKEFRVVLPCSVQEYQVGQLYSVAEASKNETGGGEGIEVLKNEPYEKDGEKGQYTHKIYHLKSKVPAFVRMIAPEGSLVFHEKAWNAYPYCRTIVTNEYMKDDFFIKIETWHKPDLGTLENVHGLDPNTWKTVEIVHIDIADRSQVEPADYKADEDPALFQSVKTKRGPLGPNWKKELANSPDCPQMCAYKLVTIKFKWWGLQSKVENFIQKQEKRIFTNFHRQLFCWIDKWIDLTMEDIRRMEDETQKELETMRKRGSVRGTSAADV
UniProt O15173: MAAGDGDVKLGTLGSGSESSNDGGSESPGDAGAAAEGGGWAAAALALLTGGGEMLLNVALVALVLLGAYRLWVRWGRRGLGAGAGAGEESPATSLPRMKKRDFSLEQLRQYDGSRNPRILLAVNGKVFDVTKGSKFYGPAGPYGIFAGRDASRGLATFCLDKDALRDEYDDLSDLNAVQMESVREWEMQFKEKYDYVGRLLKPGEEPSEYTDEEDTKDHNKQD
UniProt Q9H490: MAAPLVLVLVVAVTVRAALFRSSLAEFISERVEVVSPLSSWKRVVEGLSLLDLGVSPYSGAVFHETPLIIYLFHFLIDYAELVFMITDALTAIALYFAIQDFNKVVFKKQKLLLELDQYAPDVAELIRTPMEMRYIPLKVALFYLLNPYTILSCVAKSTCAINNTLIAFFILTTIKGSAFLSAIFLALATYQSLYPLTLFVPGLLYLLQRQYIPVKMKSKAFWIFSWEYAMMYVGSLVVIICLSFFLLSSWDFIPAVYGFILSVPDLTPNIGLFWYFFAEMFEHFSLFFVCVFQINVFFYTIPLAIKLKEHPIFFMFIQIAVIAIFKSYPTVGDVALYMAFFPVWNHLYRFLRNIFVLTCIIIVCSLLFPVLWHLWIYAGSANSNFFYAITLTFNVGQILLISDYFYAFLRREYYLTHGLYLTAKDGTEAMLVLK
UniProt O00264: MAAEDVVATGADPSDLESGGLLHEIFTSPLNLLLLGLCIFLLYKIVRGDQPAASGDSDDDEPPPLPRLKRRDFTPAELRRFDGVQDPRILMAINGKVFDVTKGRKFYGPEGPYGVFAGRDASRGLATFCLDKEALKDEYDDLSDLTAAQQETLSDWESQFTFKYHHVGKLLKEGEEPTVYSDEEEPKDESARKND
UniProt Q99471, whole entry, looked up: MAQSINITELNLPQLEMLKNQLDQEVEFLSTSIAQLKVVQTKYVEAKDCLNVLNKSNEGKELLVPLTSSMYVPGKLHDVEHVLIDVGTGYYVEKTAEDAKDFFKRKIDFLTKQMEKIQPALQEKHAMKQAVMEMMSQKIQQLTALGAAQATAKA
UniProt P40855: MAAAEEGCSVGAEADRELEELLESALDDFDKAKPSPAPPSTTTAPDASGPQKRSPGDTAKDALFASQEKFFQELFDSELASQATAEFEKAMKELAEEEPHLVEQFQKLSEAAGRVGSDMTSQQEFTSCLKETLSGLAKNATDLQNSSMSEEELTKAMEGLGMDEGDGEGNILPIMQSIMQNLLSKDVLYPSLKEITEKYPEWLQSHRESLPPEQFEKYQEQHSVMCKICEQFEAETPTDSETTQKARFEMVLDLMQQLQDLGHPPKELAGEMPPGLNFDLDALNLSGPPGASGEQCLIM
UniProt Q99570, whole entry, looked up: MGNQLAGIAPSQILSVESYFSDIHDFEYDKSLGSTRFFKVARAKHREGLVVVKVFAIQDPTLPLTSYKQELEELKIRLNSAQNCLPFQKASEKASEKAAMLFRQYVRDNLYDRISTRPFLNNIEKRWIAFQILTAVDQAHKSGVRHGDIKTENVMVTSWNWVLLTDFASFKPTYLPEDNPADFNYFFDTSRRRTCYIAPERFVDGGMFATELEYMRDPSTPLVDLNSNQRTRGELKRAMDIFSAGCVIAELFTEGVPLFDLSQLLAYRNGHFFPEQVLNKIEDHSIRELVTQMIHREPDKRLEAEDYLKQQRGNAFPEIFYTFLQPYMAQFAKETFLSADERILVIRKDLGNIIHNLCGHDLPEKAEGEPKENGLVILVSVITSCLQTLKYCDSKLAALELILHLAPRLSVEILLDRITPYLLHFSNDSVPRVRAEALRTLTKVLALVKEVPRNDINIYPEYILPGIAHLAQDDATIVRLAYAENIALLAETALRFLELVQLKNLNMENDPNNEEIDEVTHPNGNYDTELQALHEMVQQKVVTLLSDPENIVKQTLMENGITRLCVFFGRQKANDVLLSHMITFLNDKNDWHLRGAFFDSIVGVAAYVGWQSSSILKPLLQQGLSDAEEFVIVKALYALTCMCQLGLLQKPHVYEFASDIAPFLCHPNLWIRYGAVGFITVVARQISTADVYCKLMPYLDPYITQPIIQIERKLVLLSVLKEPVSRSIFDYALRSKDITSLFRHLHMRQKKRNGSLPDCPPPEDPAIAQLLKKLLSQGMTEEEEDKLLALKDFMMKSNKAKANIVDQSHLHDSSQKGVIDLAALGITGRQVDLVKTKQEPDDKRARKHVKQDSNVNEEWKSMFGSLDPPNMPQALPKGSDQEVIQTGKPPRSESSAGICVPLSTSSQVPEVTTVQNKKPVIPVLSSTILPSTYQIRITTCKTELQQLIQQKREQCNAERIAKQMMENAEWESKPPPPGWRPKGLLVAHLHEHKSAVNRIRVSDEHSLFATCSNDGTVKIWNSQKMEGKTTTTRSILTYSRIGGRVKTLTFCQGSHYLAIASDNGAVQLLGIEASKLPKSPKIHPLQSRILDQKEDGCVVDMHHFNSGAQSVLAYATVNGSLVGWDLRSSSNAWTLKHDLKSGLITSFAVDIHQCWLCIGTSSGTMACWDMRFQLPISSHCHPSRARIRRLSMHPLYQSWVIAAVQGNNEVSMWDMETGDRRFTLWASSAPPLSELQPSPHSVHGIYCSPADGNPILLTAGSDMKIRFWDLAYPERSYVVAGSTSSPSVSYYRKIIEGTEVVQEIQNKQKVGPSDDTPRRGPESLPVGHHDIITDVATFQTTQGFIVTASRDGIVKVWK
UniProt P07737, whole entry, looked up: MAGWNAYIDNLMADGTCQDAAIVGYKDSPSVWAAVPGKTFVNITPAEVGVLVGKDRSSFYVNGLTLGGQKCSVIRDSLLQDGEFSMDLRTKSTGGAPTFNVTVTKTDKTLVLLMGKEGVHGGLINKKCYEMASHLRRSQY
UniProt O15212, whole entry, looked up: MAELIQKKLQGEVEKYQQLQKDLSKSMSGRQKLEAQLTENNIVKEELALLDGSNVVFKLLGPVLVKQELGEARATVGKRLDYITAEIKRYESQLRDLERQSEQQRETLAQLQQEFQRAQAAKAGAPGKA
UniProt Q13526, whole entry, looked up: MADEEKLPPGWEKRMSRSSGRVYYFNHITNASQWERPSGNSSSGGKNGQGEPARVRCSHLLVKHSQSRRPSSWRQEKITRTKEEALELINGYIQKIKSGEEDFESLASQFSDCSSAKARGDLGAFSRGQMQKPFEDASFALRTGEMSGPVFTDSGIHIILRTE
UniProt P37287: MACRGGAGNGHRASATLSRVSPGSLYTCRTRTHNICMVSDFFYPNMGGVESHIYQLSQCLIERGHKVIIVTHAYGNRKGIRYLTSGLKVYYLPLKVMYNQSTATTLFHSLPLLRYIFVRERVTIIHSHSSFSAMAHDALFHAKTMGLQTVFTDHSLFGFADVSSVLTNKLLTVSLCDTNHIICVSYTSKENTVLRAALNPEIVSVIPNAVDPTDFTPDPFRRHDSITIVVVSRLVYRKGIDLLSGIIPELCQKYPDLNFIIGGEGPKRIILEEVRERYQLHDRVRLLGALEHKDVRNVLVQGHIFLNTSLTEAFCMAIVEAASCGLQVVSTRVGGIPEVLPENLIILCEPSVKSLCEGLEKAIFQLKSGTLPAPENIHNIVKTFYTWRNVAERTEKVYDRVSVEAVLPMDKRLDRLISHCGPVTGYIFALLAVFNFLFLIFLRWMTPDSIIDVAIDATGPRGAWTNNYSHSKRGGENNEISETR
UniProt P00558: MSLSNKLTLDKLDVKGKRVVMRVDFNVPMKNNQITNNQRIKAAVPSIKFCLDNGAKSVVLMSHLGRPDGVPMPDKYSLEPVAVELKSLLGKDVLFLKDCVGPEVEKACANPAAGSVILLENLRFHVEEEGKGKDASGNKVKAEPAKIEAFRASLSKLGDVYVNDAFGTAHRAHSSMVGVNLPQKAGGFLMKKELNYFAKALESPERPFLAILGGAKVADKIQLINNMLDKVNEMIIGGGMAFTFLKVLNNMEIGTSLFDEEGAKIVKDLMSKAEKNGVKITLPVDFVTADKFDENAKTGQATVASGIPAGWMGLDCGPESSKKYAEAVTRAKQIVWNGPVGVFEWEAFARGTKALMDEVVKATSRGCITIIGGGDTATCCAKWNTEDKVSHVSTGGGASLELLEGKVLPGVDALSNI
UniProt Q00169: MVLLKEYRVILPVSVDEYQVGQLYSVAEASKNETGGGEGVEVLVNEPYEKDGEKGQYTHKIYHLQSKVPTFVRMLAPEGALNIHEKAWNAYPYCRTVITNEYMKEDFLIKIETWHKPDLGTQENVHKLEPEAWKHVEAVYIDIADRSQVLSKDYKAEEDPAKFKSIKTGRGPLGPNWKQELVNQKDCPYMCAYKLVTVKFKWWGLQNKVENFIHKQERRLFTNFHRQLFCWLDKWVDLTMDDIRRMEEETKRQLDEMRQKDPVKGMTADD
UniProt Q9UBF8: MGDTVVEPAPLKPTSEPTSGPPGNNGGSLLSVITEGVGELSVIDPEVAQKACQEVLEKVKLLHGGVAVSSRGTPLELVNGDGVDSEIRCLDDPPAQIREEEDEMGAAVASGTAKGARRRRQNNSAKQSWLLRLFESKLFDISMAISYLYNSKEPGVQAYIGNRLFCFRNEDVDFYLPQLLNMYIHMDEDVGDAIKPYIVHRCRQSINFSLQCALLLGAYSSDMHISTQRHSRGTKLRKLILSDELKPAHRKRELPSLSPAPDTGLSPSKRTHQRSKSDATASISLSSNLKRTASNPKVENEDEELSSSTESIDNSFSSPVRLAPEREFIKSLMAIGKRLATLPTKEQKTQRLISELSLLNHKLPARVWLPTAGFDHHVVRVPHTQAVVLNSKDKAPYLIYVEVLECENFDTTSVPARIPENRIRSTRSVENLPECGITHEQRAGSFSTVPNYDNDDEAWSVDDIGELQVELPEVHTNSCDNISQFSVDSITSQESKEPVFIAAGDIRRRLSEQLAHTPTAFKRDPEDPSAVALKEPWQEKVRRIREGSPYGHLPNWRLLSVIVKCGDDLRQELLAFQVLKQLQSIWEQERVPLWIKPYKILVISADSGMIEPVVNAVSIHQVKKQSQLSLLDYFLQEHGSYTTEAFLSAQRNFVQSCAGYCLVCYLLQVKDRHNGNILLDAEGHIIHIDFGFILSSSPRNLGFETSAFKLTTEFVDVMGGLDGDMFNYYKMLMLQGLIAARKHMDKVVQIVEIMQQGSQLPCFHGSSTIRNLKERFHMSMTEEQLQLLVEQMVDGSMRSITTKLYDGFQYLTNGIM
UniProt Q13393: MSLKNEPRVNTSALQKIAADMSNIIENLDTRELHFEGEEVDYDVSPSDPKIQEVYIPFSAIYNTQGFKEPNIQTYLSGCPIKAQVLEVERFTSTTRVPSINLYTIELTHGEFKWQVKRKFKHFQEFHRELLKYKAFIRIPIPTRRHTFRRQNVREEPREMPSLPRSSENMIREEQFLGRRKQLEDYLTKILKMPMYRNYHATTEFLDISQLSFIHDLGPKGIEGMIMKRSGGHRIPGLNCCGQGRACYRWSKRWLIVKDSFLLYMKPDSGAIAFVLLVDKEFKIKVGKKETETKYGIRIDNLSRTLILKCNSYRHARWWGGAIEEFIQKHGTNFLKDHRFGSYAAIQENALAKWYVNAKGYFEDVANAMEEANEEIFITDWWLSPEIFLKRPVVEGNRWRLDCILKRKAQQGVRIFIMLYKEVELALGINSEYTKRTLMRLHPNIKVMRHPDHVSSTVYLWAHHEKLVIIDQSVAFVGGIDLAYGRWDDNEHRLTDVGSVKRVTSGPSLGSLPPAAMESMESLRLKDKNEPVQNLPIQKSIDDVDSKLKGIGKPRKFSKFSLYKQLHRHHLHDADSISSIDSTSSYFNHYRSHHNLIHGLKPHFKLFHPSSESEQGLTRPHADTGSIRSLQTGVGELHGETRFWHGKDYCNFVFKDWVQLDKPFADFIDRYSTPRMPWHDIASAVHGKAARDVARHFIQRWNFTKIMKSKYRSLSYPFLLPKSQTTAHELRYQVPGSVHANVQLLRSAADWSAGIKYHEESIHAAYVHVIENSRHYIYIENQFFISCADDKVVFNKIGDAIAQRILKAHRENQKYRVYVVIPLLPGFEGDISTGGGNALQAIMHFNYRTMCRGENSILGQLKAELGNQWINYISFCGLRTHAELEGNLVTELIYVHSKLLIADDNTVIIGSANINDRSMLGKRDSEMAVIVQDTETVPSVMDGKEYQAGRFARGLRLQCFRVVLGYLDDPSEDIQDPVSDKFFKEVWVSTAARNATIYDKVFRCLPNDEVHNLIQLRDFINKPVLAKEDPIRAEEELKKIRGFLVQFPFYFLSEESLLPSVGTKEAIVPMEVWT

Tests used:
Assay in all cases: log2 fold change, soluble protein after heating vs DMSO (PISA); higher = thermal stabilisation; K562 cells, 10 uM, 30 min; active = over 0.2 and 3.5 SD of the protein, either way, in both replicates (recomputed)
[1] = compound: CC[C@@H]1C(=O)N(C)c2cnc(Nc3ccc(C(=O)NC4CCN(C)CC4)cc3OC)nc2N1C1CCCC1
In short: (§1)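 Thermal stability values are relative to control samples and come from duplicates. They are expressed as log2 fold changes. For measurement, K562 cells (2×10^6 cells/mL) received 10 μM compound for 30 min, and aliquots were heated for 3 min over 48°C-58°C, pooled, and extracted at 4°C in PBS with 0.5% NP-40. Soluble protein, the supernatant after 21,000xg for 90 min, was quantified by TMTpro 16plex LC-MS/MS with equalised channel sums.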

volasertib = compound: CC[C@@H]1C(=O)N(C)c2cnc(Nc3ccc(C(=O)N[C@H]4CC[C@H](N5CCN(CC6CC6)CC5)CC4)cc3OC)nc2N1C(C)C [volasertib]
In short: as §1

[2] = compound: CC[C@H](C)N1C=C(C2=C(C=C(C=C21)C3=CN=C(C=C3)N4CCNCC4)C(=O)NCC5=C(C=C(NC5=O)C)C)C
In short: as §1

epoxomicin = compound: CC[C@H](C)[C@@H](C(=O)N[C@@H]([C@@H](C)O)C(=O)N[C@@H](CC(C)C)C(=O)[C@]1(CO1)C)NC(=O)[C@H]([C@@H](C)CC)N(C)C(=O)C [epoxomicin]
In short: as §1

[3] = compound: CCn1c(C(=O)N(C2CC2)C2CC2)cc2c3c(ncn3C)c(Nc3cc(C)n(C)n3)nc21
In short: as §1

[4] = compound: CCn1cc(-c2ccnc3[nH]c(-c4cccc(CN(C)C)c4)cc23)c(-c2ccc(NC(=O)N(C)C)cc2)n1
In short: as §1

[5] = compound: CN(C)CC(=O)Nc1ccc2[nH]c(=O)c3ccccc3c2c1
In short: as §1

rosiglitazone = compound: CN(CCOC1=CC=C(C=C1)C[C@H]2C(=O)NC(=O)S2)C3=CC=CC=N3 (racemic) [rosiglitazone]
In short: as §1

[6] = compound: CN1C2=C(C3=C1C(=O)N(N=C3)CC4=CC(=CC=C4)N)SC(=C2)S(=O)C
In short: as §1

[7] = compound: CN1CCC(CNc2ccc3ncc(-c4cccc(OC(F)(F)F)c4)n3n2)CC1
In short: as §1

saracatinib = compound: CN1CCN(CCOc2cc(OC3CCOCC3)c3c(Nc4c(Cl)ccc5c4OCO5)ncnc3c2)CC1 [saracatinib]
In short: as §1

sotrastaurin = compound: CN1CCN(c2nc(C3=C(c4c[nH]c5ccccc45)C(=O)NC3=O)c3ccccc3n2)CC1 [sotrastaurin]
In short: as §1

alvocidib = compound: CN1CC[C@H](c2c(O)cc(O)c3c(=O)cc(-c4ccccc4Cl)oc23)[C@H](O)C1 [alvocidib]
In short: as §1

Tubastatin A = compound: CN1CCc2c(c3ccccc3n2Cc2ccc(C(=O)NO)cc2)C1 [Tubastatin A]
In short: as §1

[8] = compound: CNC(=O)C1=CC=CC=C1NC2=NC(=NC=C2Cl)NC3=C(C=C(C=C3)N4CCOCC4)OC
In short: as §1

defactinib = compound: CNC(=O)c1ccc(Nc2ncc(C(F)(F)F)c(NCc3nccnc3N(C)S(C)(=O)=O)n2)cc1 [defactinib]
In short: as §1

rucaparib = compound: CNCc1ccc(-c2[nH]c3cc(F)cc4c3c2CCNC4=O)cc1 [rucaparib]
In short: as §1

[9] = compound: CNc1nc(-c2ccc3c(N)n[nH]c3c2)cc(N2C[C@@H](C(=O)NC3CCCCC3)CC[C@H]2C)n1
In short: as §1

encorafenib = compound: COC(=O)N[C@@H](C)CNc1nccc(-c2cn(C(C)C)nc2-c2cc(Cl)cc(NS(C)(=O)=O)c2F)n1 [encorafenib]
In short: as §1

[10] = compound: COC(=O)[C@H](CCSC)NC(=O)C1=C(C=C(C=C1)NC[C@H](CS)N)C2=CC=CC=C2
In short: as §1

Measured: log2 fold change

PITPNB isoform 3 (UniProt P48739)
inactive: [1] 0.072 | volasertib 0.072 | [2] -0.002 | epoxomicin 0.027 | [3] -0.005 | [4] -0.026 | [5] 0.015 | rosiglitazone 0.01 | [6] -0.083 | [7] 0.023 | saracatinib 0.005 | sotrastaurin 0.109 | alvocidib -0.046 | Tubastatin A -0.033 | [8] 0.063 | defactinib -0.002 | rucaparib -0.015 | [9] -0.035 | encorafenib -0.018 | [10] 0.004

PGRMC2 isoform 2 (UniProt O15173)
inactive: [1] -0.053 | volasertib -0.012 | [2] -0.01 | epoxomicin 0.049 | [3] 0.016 | [4] -0.039 | [5] -0.005 | rosiglitazone -0.028 | [6] -0.036 | [7] 0.134 | saracatinib 0.026 | sotrastaurin -0.005 | alvocidib -0.03 | Tubastatin A -0.003 | [8] -0.018 | defactinib -0.036 | rucaparib 0.039 | [9] 0.005 | encorafenib -0.033 | [10] -0.035

PIGU (UniProt Q9H490)
inactive: [1] 0.056 | volasertib -0.054 | [2] -0.008 | epoxomicin 0.092 | [3] 0.018 | [4] -0.016 | [5] 0.002 | rosiglitazone 0.038 | [6] -0.092 | [7] 0.063 | saracatinib 0.031 | sotrastaurin -0.062 | alvocidib -0.008 | Tubastatin A 0.004 | [8] 0.019 | defactinib -0.098 | rucaparib -0.048 | [9] -0.014 | encorafenib -0.02 | [10] 0.015

PGRMC1 (UniProt O00264)
inactive: [1] -0.021 | volasertib -0.054 | [2] -0.014 | epoxomicin 0.033 | [3] 0.01 | [4] -0.01 | [5] 0.004 | rosiglitazone -0.016 | [6] -0.037 | [7] 0.142 | saracatinib 0.006 | sotrastaurin 0.028 | alvocidib 0.022 | Tubastatin A 0.001 | [8] 0.008 | defactinib 0.008 | rucaparib 0.028 | [9] -0.024 | encorafenib -0.049 | [10] 0.003

PFDN5 (UniProt Q99471)
inactive: [1] 0.06 | volasertib 0.007 | [2] -0.012 | epoxomicin 0.158 | [3] 0.015 | [4] -0.06 | [5] 0.023 | rosiglitazone -0.018 | [6] -0.112 | [7] 0.285 | saracatinib 0.02 | sotrastaurin -0.026 | alvocidib -0.054 | Tubastatin A 0.061 | [8] -0.003 | defactinib -0.035 | rucaparib -0.024 | [9] 0.006 | encorafenib -0.029 | [10] -0.124

PEX19 (UniProt P40855)
inactive: [1] 0.014 | volasertib 0.012 | [2] -0.045 | epoxomicin 0.023 | [3] -0.001 | [4] 0.05 | [5] 0.005 | rosiglitazone 0 | [6] -0.037 | [7] 0.027 | saracatinib 0.018 | sotrastaurin 0.025 | alvocidib 0.006 | Tubastatin A 0.023 | [8] -0.049 | defactinib -0.027 | rucaparib -0.024 | [9] -0.036 | encorafenib -0.035 | [10] 0.018

PIK3R4 (UniProt Q99570)
inactive: [1] 0.056 | volasertib 0.005 | [2] 0.022 | epoxomicin -0.02 | [3] 0.085 | [4] -0.038 | [5] -0.007 | rosiglitazone 0.029 | [6] -0.052 | [7] 0.042 | saracatinib 0.01 | sotrastaurin 0 | alvocidib -0.031 | Tubastatin A -0.004 | [8] -0.017 | defactinib -0.037 | rucaparib 0.002 | [9] -0.01 | encorafenib -0.005 | [10] 0.003

Reprinted from the entries so far (4 entries):
PGRMC2 isoform 2 (UniProt O15173)
inactive: [1] -0.053 | volasertib -0.012 | [2] -0.01 | epoxomicin 0.049 | [3] 0.016 | [4] -0.039 | [5] -0.005 | rosiglitazone -0.028 | [6] -0.036 | [7] 0.134 | saracatinib 0.026 | sotrastaurin -0.005 | alvocidib -0.03 | Tubastatin A -0.003 | [8] -0.018 | defactinib -0.036 | rucaparib 0.039 | [9] 0.005 | encorafenib -0.033 | [10] -0.035

PIGU (UniProt Q9H490)
inactive: [1] 0.056 | volasertib -0.054 | [2] -0.008 | epoxomicin 0.092 | [3] 0.018 | [4] -0.016 | [5] 0.002 | rosiglitazone 0.038 | [6] -0.092 | [7] 0.063 | saracatinib 0.031 | sotrastaurin -0.062 | alvocidib -0.008 | Tubastatin A 0.004 | [8] 0.019 | defactinib -0.098 | rucaparib -0.048 | [9] -0.014 | encorafenib -0.02 | [10] 0.015

PGRMC1 (UniProt O00264)
inactive: [1] -0.021 | volasertib -0.054 | [2] -0.014 | epoxomicin 0.033 | [3] 0.01 | [4] -0.01 | [5] 0.004 | rosiglitazone -0.016 | [6] -0.037 | [7] 0.142 | saracatinib 0.006 | sotrastaurin 0.028 | alvocidib 0.022 | Tubastatin A 0.001 | [8] 0.008 | defactinib 0.008 | rucaparib 0.028 | [9] -0.024 | encorafenib -0.049 | [10] 0.003

PFDN5 (UniProt Q99471)
inactive: [1] 0.06 | volasertib 0.007 | [2] -0.012 | epoxomicin 0.158 | [3] 0.015 | [4] -0.06 | [5] 0.023 | rosiglitazone -0.018 | [6] -0.112 | [7] 0.285 | saracatinib 0.02 | sotrastaurin -0.026 | alvocidib -0.054 | Tubastatin A 0.061 | [8] -0.003 | defactinib -0.035 | rucaparib -0.024 | [9] 0.006 | encorafenib -0.029 | [10] -0.124

Remaining list, next part

PFN1 (UniProt P07737)
inactive: [1] -0.026 | volasertib -0.001 | [2] 0.009 | epoxomicin 0.049 | [3] 0.018 | [4] 0.015 | [5] -0.095 | rosiglitazone -0.009 | [6] -0.09 | [7] -0.006 | saracatinib 0.042 | sotrastaurin -0.022 | alvocidib -0.05 | Tubastatin A -0.045 | [8] -0.01 | defactinib 0.02 | rucaparib -0.039 | [9] -0.004 | encorafenib -0.002 | [10] -0.002

PFDN6 (UniProt O15212)
inactive: [1] 0.062 | volasertib 0.046 | [2] -0.014 | epoxomicin 0.016 | [3] 0.02 | [4] 0.016 | [5] 0.02 | rosiglitazone 0.006 | [6] 0.006 | [7] -0.005 | saracatinib -0.016 | sotrastaurin 0.02 | alvocidib 0.019 | Tubastatin A 0.02 | [8] -0.018 | defactinib -0.002 | rucaparib -0.014 | [9] -0.017 | encorafenib -0.014 | [10] -0.03

PIN1 (UniProt Q13526)
inactive: [1] -0.029 | volasertib -0.173 | [2] 0.018 | epoxomicin 0.043 | [3] 0.016 | [4] -0.054 | [5] 0.034 | rosiglitazone 0.011 | [6] 0.012 | [7] -0.007 | saracatinib 0.041 | sotrastaurin -0.012 | alvocidib -0.115 | Tubastatin A 0.012 | [8] 0.027 | defactinib -0.126 | rucaparib 0.054 | [9] -0.04 | encorafenib -0.02 | [10] -0.066

PIGA (UniProt P37287)
inactive: [1] 0.044 | volasertib -0.014 | [2] -0.029 | epoxomicin 0.04 | [3] -0.005 | [4] 0.166 | [5] -0.02 | rosiglitazone 0.054 | [6] -0.044 | [7] 0.19 | saracatinib -0.057 | sotrastaurin 0.011 | alvocidib -0.02 | Tubastatin A -0.024 | [8] 0.041 | defactinib 0.027 | rucaparib -0.02 | [9] -0.158 | encorafenib 0.007 | [10] 0.018

PGK1 (UniProt P00558)
inactive: [1] -0.01 | volasertib 0.132 | [2] 0.015 | epoxomicin 0.04 | [3] 0.025 | [4] -0.03 | [5] -0.007 | rosiglitazone 0.023 | [6] -0.119 | [7] 0.01 | saracatinib -0.019 | sotrastaurin 0.044 | alvocidib -0.044 | Tubastatin A -0.003 | [8] 0.012 | defactinib -0.005 | rucaparib -0.036 | [9] -0.008 | encorafenib -0.024 | [10] 0.01

PITPNA (UniProt Q00169)
inactive: [1] -0.032 | volasertib 0.009 | [2] -0.015 | epoxomicin 0.066 | [3] -0.01 | [4] -0.001 | [5] -0.049 | rosiglitazone -0.007 | [6] -0.098 | [7] -0.049 | saracatinib -0.005 | sotrastaurin 0.014 | alvocidib -0.053 | Tubastatin A -0.019 | [8] -0.017 | defactinib -0.015 | rucaparib -0.071 | [9] -0.066 | encorafenib -0.028 | [10] 0.002

PGD (UniProt P52209)
inactive: [1] -0.026 | volasertib 0.034 | [2] 0.028 | epoxomicin 0.067 | [3] 0.013 | [4] -0.022 | [5] -0.026 | rosiglitazone 0.02 | [6] -0.095 | [7] -0.05 | saracatinib 0.024 | sotrastaurin 0.009 | alvocidib -0.055 | Tubastatin A -0.015 | [8] -0.024 | defactinib 0.013 | rucaparib -0.066 | [9] -0.008 | encorafenib -0.015 | [10] 0.012

PI4KB (UniProt Q9UBF8)
inactive: [1] 0.013 | volasertib -0.024 | [2] 0.051 | epoxomicin 0.061 | [3] 0.005 | [4] 0.001 | [5] 0.028 | rosiglitazone -0.014 | [6] -0.063 | [7] -0.081 | saracatinib 0.008 | sotrastaurin 0.028 | alvocidib -0.052 | Tubastatin A 0.01 | [8] -0.023 | defactinib -0.078 | rucaparib 0.002 | [9] 0.068 | encorafenib -0.046 | [10] 0.013

PLD1 (UniProt Q13393)
inactive: [1] 0.036 | volasertib 0.136 | [2] -0.064 | epoxomicin 0.028 | [3] 0.094 | [4] -0.029 | [5] -0.065 | rosiglitazone -0.266 | [6] 0.161 | [7] -0.139 | saracatinib -0.195 | sotrastaurin -0.194 | alvocidib 0.087 | Tubastatin A 0.122 | [8] 0.006 | defactinib 0.071 | rucaparib 0.125 | [9] 0.06 | encorafenib 0.089 | [10] -0.09
